PubChem BioAssay AID1259254, NCATS – 2017
This is an unselected part of about 59,000 reagents tested. In the full data, about 1,550 (2.6%) are marked active. 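G2 share is only a proxy for re-replication; each gene was hit by three separate siRNAs, and active genes were retested.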 A number with no mark means an inactive call. Reagents against one gene are numbered here. Further read-outs or replicates are left out here. Reagent sequences are not shown. Not given: the amount of reagent.

Assay: 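Genome-wide screen for genes that prevent DNA re-replication in cancer cells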 (primary screen)
Cells: human HCT116 colorectal cancer cells
Knock-down reagent: single siRNA against human genes
Duration: 3 days
Measured: 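Imaged Hoechst DNA stain sorts each cell into a cycle phase by DNA amount; per plate, G2 fraction set to 0% for non-targeting and 100% for GMNN siRNA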
Direction: G2 robust z-score: higher = more G2 cells, more excess DNA replication
Active means: 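Active siRNAs have a G2 robust z of 5 or more median absolute deviations over the median, which in these data means about 38% or higher of GMNN control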

{"target":"ICE1","siRNA no.":1,"G2 robust z-score":4.64}
{"target":"ICE1","siRNA no.":2,"G2 robust z-score":3.68}
{"target":"ICE1","siRNA no.":3,"G2 robust z-score":0.0533}
{"target":"NECAP2","siRNA no.":1,"G2 robust z-score":-0.885}
{"target":"NECAP2","siRNA no.":2,"G2 robust z-score":0.857}
{"target":"NECAP2","siRNA no.":3,"G2 robust z-score":-1.68}
{"target":"PDIA6","siRNA no.":1,"G2 robust z-score":0.634}
{"target":"PDIA6","siRNA no.":2,"G2 robust z-score":-0.561}
{"target":"PDIA6","siRNA no.":3,"G2 robust z-score":2.27}
{"target":"MARCHF7","siRNA no.":1,"G2 robust z-score":-0.655}
{"target":"MARCHF7","siRNA no.":2,"G2 robust z-score":0.281}
{"target":"MARCHF7","siRNA no.":3,"G2 robust z-score":-1.18}
{"target":"LOC400870 (retired record)","siRNA no.":1,"G2 robust z-score":-0.46}
{"target":"LOC400870 (retired record)","siRNA no.":2,"G2 robust z-score":2.4}
{"target":"LOC400870 (retired record)","siRNA no.":3,"G2 robust z-score":-0.22}
{"target":"SQOR","siRNA no.":1,"G2 robust z-score":2.71}
{"target":"SQOR","siRNA no.":2,"G2 robust z-score":-1.2}
{"target":"SQOR","siRNA no.":3,"G2 robust z-score":-0.192}

3 entries from above, reformatted.
ICE1 #2
- G2 robust z-score: 3.68

ICE1 #3
- G2 robust z-score: 0.0533

NECAP2 #1
- G2 robust z-score: -0.885
